Test results published in US10737995B2, “Nuclear receptor modulators and their use for the treatment and prevention of cancer” (The United States of America, as represented by the …, priority 2011, dated 2020).
For some of these results: At least one structure is not confirmed: it was looked up by name or label, or the drawing left a doubt. Some results were stated once for a whole list of compounds, not compound by compound.

Columns and labels:
[1] = test system: PSA mRNA expression in LNCaP cells; test: PSA mRNA expression in LNCaP cells, real time RT-PCR; assay type: cell-based, human; details: 1 μM (FIG. 8)
Experimental: FIG. 3 is a graph showing the inhibition of PSA mRNA expression. […] As shown in the graph, a hit was identified that inhibited over 90% PSA mRNA expression in LNCaP cells at 10 μM after 20 hours of treatment.
LNCaP cells were incubated for 3 days in phenol red-free RPMI 1640 supplemented with 10% charcoal-stripped FBS and 1% antimycotic-antibiotic solution, and then cells were treated for 20 hours. The concentration of R1881 was 0.5 nM, and that of the corresponding compounds was 10, 5 or 1 μM, respectively. Compound 49 inhibited PSA mRNA expression 80% in the presence of R1881 at 5 μM. This activity was similar to bicalutamide.
For PSA, TMPRSS2, and UBE2C mRNA determination, LNCaP cells or 22Rv1 cells, were cultured and treated with the corresponding compounds for 20 hours in the presence or absence of the synthetic androgen R1881. Total RNA was isolated from cultured cells using the RNeasy RNA Isolation Kit (Qiagen). The RNAs were reverse transcribed immediately after RNA extraction with the High Capacity cDNA Reverse Transcription Kit (Applied Biosystems), using random primers included in the kit, according to the manufacturer's instructions. The cDNA products were stored at −20° C. until the PCR analysis was performed. Real-time PCR primers were designed using Primer Express Applications (Applied Biosystems). The primer sequences for real-time PCR were as follows:
The mRNA level and total protein in cells were measured after treatment with either control, bicalutamide (0.08 μM to 1.25 μM), or MDV3100 (an antiandrogen) and either about 2.5 μM or about 1.0 μM of Compounds 1-117 respectively. It was known that the expression of PSA mRNA in LNCaP cells is driven by an AR mediated pathway. While PSA is androgen-dependent AR-target gene, UBE2C is androgen-independent AR-target gene. The PSA, TMPRSS2 and UBE2C mRNA levels were normalized by the rRNA level.

[2] = test system: genome-wide transcriptional response; test: Microarray analysis of genome-wide transcriptional response; assay type: cell-based, human
Experimental: This example illustrates that Compound 86 has an impact on AR-driven gene expression (PSA) and androgen-independent AR-driven gene expression (e.g., UBE2C). A microarray analysis was performed on the genome-wide transcriptional response to Compound 86 compared with the antiandrogens bicalutamide and MDV3100, and solvent DMSO. Each compound was tested at two concentrations: 1 and 5 μM. The data were subjected to bioinformatics analysis using the Partek Genomics Software. […] FIG. 19B depicts a different view in 3-dimensional space again reinforcing the differences between Compound 86 versus DMSO, bicalutamide and MDV3100. This visual assessment is consistent with the data showing that Compound 86 and not DMSO, bicalutamide, or MDV3100, can inhibit the androgen-independent, androgen receptor-dependent transcriptional program of castrate-resistant prostate cancer.

Compound	inhibition of PSA mRNA expression [1]	inhibition of the androgen-independent, androgen receptor-dependent transcriptional program of castrate-resistant prostate cancer [2]
COc1ccc(C(=O)/C=C/c2ccc(C#N)cc2)cc1OC [Compound 103]	over 75%	
CC(O)(CS(=O)(=O)c1ccc(F)cc1)C(=O)Nc1ccc(C#N)c(C(F)(F)F)c1 (stereo not shown) [bicalutamide, reference compound]		not
COc1ccccc1C(=O)/C=C/c1ccccc1[N+](=O)[O-] [Compound 49]	over 75%	
COc1ccc(C(=O)/C=C/c2ccc([N+](=O)[O-])cc2)cc1OC [Compound 32]	over 75%	
